# Hit rate of the full screen: of about 360,000 compounds, about 7,500 (2.1%) were called active. Inconclusive means that the source gave no clear call. Such entries were picked first, then a sample of the others. Calls come from the whole dose curve; as a rule, active = well fitted inhibition curve with a large enough effect; inconclusive = small, poorly fitted or top-dose-only effect, or effect the other way; inactive = flat fitted curve, though single readings scatter. Where the call is inconclusive, the potency comes from a doubtful curve fit.
# Assay: Nrf2 qHTS screen for inhibitors; note: nearly all actives have a fitted effect of over 60% in size
# Details: A549 ARE-Fluc reporter, luciferase luminescence, 18-24 h; activity change, negative = inhibition: at 46 µM (top of the series)
# Procedure, shortened: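 A549 ARE_Fluc cells (5000/well, 5% FBS OPTI-MEM) pre-incubated 2 h, then treated with compounds 18-24 h at 37C/5% CO2 in concentration-response. CellTiter-Fluor viability read first; BugLite luciferase luminescence after 15 min at room temperature gives Nrf2 activity.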
# % is set by controls: 0 for no effect and ±100 for the full control effect; potency is the fitted concentration of half-maximal effect.
SMILES,Potency,"activity change, negative = inhibition"
COC(=O)c1cccc(C23CC4(C2)[C@H](CN(Cc2ccc(C(F)(F)F)cc2)[C@@H]4c2ccccc2)C3c2ccccc2)c1 (some centres not stated),"inconclusive: 25.9 µM [falling, single point]",
Cc1cccc(C(=O)NC(=S)NNC(=O)COc2c(C)cccc2C)c1,"inconclusive: 29.1 µM [falling, single point]",
CCOC(=O)C1CCN(c2c(C(=O)c3ccc(OC)cc3)cnc3ccccc23)CC1,"inconclusive: 29.1 µM [falling, single point]",
COc1ccc(CCNC(=O)c2nc(SCc3ccccc3F)ncc2Cl)cc1OC,active: 16.4 µM,
CCOCCc1nn2c(=O)cc(COC(=O)Cc3ccccc3)nc2s1,"inconclusive: 29.1 µM [activator, single point]",
O=C1N(Cc2cccc(Cl)c2)C[C@@H]2C[C@@H](c3cccn3-c3cccnc3)N3CCC[C@@]123,active: 20.6 µM,
CCOc1ccc(C2=NNC(c3cccnc3)=Nc3ccc(OC)cc32)cc1,"inconclusive: 29.1 µM [falling, single point]",
CS(=O)(=O)c1ccc(C(=O)OCC(=O)Nc2cc(C(F)(F)F)ccc2Cl)cc1[N+](=O)[O-],,inactive: -8.86%
CCOc1ccccc1N(CC(=O)N/N=C(\C)c1cccc(Br)c1)S(C)(=O)=O,,inactive: -18.9%
CN(C)S(=O)(=O)c1ccc2oc(SCC(=O)c3c(N)n(C4CC4)c(=O)[nH]c3=O)nc2c1,"inconclusive: 2.31 µM [falling, full curve, poor fit]",
O=C(CSc1nnc2ccccn12)N1CCc2ccccc2C1,"inconclusive: 2.59 µM [activator, partial curve, poor fit]",
CCN(CC)c1ncnc2c1ncn2Cc1c(Cl)cccc1Cl,"inconclusive: 29.1 µM [falling, partial curve, poor fit]",
COc1ccc(OC)c(CNC(=O)CN(c2ccc(C)cc2)S(=O)(=O)N(C)C)c1,,inactive: 1.99%
N/C(=N\c1nc2ccccc2o1)NC(=O)c1ccccc1F,"inconclusive: 14.6 µM [activator, partial curve]",
CCOc1ccccc1CNC(=O)c1ccc(NC(=O)N2CC(C)Sc3ccccc32)cc1 (configuration not stated),"inconclusive: 23.1 µM [falling, single point]",
CC(C)N(C(=O)[C@H]1C[C@H](CC(=O)NCC23CC4CC(CC(C4)C2)C3)C(=O)N2CCc3c([nH]c4ccc(Cl)cc34)[C@]12C)C(C)C,"inconclusive: 29.1 µM [falling, single point]",
CCC(C)c1ccc(OCc2ccc(C(=O)O)o2)cc1 (configuration not stated),"inconclusive: 0.291 µM [activator, full curve, poor fit]",
CC(=O)N1CCN(C(=O)c2ccc(NS(=O)(=O)c3ccc(Cl)c(Cl)c3)cc2)CC1,,inactive: 4.88%
COc1ccc(-c2cc(-c3c(O)c(OC)c4occc4c3OC)[nH]n2)cc1,"inconclusive: 32.6 µM [falling, single point]",
Nc1cc(=O)[nH]c(SC/C=C/c2ccccc2)n1,,inactive: -20.2%
COc1ccc(C(=O)N2CCN(c3ccc(F)cc3)CC2)cc1S(=O)(=O)NC1CC1,"inconclusive: 11.6 µM [activator, partial curve]",

# Copied from the list:
# Entry for CCOC(=O)C1CCN(c2c(C(=O)c3ccc(OC)cc3)cnc3ccccc23)CC1 under Potency: inconclusive: 29.1 µM [falling, single point]
# Entry for COc1ccc(CCNC(=O)c2nc(SCc3ccccc3F)ncc2Cl)cc1OC under Potency: active: 16.4 µM
# Entry for CCN(CC)c1ncnc2c1ncn2Cc1c(Cl)cccc1Cl under Potency: inconclusive: 29.1 µM [falling, partial curve, poor fit]

# Additional entries.

SMILES,Potency,"activity change, negative = inhibition"
CN(C(=O)c1ccc(NC(=O)Cc2cccc(NC(=O)C3CCCN(C(=O)C4CCC4)C3)c2)cc1)C1CC1 (configuration not stated),,inactive: -8.35%
COc1ccc2nc(N3CCN(C(=O)C4COc5ccccc5O4)CC3)sc2c1 (configuration not stated),"inconclusive: 8.2 µM [activator, partial curve, poor fit]",
Cn1c(=O)oc2cc(S(=O)(=O)N3CCCC(C(=O)NCCc4ccc(Cl)cc4)C3)ccc21 (configuration not stated),,inactive: -8.91%
CCSc1nc(N)c2c3c(sc2n1)CCC3,"inconclusive: 20.6 µM [activator, single point]",
COc1ccccc1CNS(=O)(=O)c1ccc2c(c1)NC(=O)C(C)C(=O)N2 (configuration not stated),,inactive: -8.56%
CC(C)(C)c1nnc(N/N=C/c2cc(Br)ccc2O)n(N)c1=O,"inconclusive: 25.9 µM [falling, partial curve, poor fit]",
C=CCNC(=O)c1cc2c(=O)c3ccccc3oc2nc1C,"inconclusive: 23.1 µM [activator, single point]",
CC(=O)c1ccc(NC(=O)Nc2ccc(NS(=O)(=O)c3ccc(C)cc3)cc2)cc1,"inconclusive: 32.6 µM [falling, single point]",
O=C(Cc1ccc([N+](=O)[O-])cc1)NCc1cccnc1,,inactive: -5.7%
COCC(=O)N(C)[C@H]1C[C@H]2c3cc(Oc4ccccc4C)ccc3CCN2C(=O)[C@H]1[C@H](C)O,,inactive: 0.467%
CCC(=O)Nc1ccc(NC(=O)c2cc3ccccc3o2)cc1,,inactive: -19.2%
CCOC(=O)c1cccc(NC(=O)NCc2cccn2Cc2ccccc2)c1,"inconclusive: 4.61 µM [falling, full curve, poor fit]",
CCn1nc(C(=O)Nc2ccc(N3CCOCC3)cc2)c2ccccc2c1=O,"inconclusive: 0.517 µM [falling, full curve, poor fit]",
C=CC(=O)N1C/C(=C/c2ccc(F)cc2)C(=O)/C(=C\c2ccc(F)cc2)C1,"inconclusive: 18.4 µM [falling, single point]",
O=C1C=C(N2CCCCCC2)C(=O)N1c1ccc(Cl)cc1,"inconclusive: 29.1 µM [activator, partial curve]",
O=C(c1ccc(S(=O)(=O)N2CCCC2)cc1)N1CCC(CN2C(=O)c3cccc4cccc(c34)C2=O)CC1,"inconclusive: 3.26 µM [falling, partial curve]",
CN1C/C(=C/c2ccncc2)C(=O)/C(=C/c2ccncc2)C1,,inactive: 30.7%
O=C(Nc1nnc(-c2ccccc2)o1)c1cccc(S(=O)(=O)N2CCOCC2)c1,active: 20.6 µM,
CC(=O)c1ccc(NC(=O)CN2C(=O)CCc3ccccc32)cc1,"inconclusive: 2.59 µM [activator, full curve, poor fit]",
Cc1ccc(Cn2cc(CCC(=O)NC3CCC(C)CC3)c3ccccc32)cc1 (configuration not stated),"inconclusive: 25.9 µM [activator, partial curve, poor fit]",
O=C(Oc1ccc(-c2cnc3ccccc3n2)cc1)c1cccc([N+](=O)[O-])c1,"inconclusive: 9.2 µM [activator, partial curve, poor fit]",
